In all, about 340,000 compounds went through this assay and about 170 (0.05%) were called active. The shares of active, inactive and inconclusive entries below differ from those in the screen. The call rests on the fitted dose curve; in most records, active means well fitted inhibition curve with a large enough effect in the signal ratio, with a control signal flat (not every such curve was filed as active); inconclusive means small, poorly fitted or top-dose-only effect, or effect the other way, or a change in a side signal; inactive means flat fitted curve, though single readings scatter; the % refers to the signal ratio. Potencies of inconclusive entries are doubtful fits and often do not repeat.
test: qHTS Assay to Find Inhibitors of Chronic Active B-Cell Receptor Signaling; conditions: ABC-DLBCL IkBa-CBG/CBR reporter, luminescence ratio (green luciferase fused to IkBa over red control in TMD8 lymphoma cells), 4 h; activity change, negative = inhibition: at 46.1 µM (top of the series);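 on activity change, negative = inhibition: plate controls were basal doxycycline-induced cells for no effect and cells given 10 µM MG132 for full effect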
Procedure, shortened: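 Doxycycline induced both beetle luciferases in TMD8 lymphoma cells; IKK-driven degradation limits the IkappaBalpha-fused green signal, while red luminescence normalises for cell number and nonspecific effects. Compounds tested up to 46 uM, 4 hrs.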
Potency means the concentration at half of the fitted maximal effect.

Structure (SMILES)	Potency	activity change, negative = inhibition
CCCC1C(C#N)=C(N)Oc2c1c(=O)oc1ccccc21 (centres undefined)	inconclusive: 18.4 µM [falling, single point]	
Cc1cccnc1-n1c(-c2ccco2)nc2ccccc2c1=O		inconclusive: -0.189%
C[C@]12CCC(=O)C=C1CC[C@@H]1[C@@H]2CC[C@@]2(C)[C@H]1CC[C@]2(C)O		inconclusive: 5.55%
CCCCn1c(O)c(C=NCCCN(C)C)c(=O)[nH]c1=O		inconclusive: -0.0565%
Cc1ccccc1C1=NCC(=S)Nc2ccc(Cl)cc21		inconclusive: -1.79%
CCC(CO)(C(=O)OC1C[N+]2(C)CCC1CC2)c1ccccc1 (centres undefined)		inactive: -0.724%
COC(=O)C1=C(c2ccc(F)cc2OCc2ccccc2)C[C@@H]2CC[C@H]1N2C(=O)NC1CC1		inconclusive: 1.14%
O=C(Cn1nc(-c2ccc(Cl)cc2)ccc1=O)N1CCC2(CC1)OCCO2		inactive: -11.6%
O=C(/C=C/Nc1ccc(Br)cc1F)c1ccco1	inconclusive: 20 µM [falling, single point]	
CN1CCc2c(C#N)c(Cl)nc(Cl)c2C1		inconclusive: 9.57%
CC(=O)OC1=CC[C@H]2[C@@H]3CC[C@H]4C[C@H](OC(C)=O)[C@@H](OC(C)=O)C[C@]4(C)[C@H]3CC[C@]12C		inactive: -8.12%
COC(=O)C1=C(c2cccc(OCc3ccccc3)c2)C[C@@H]2CC[C@H]1N2C(=O)NCCOc1ccccc1		inconclusive: -7.75%
Cc1c(CCN)ccc2c1[nH]c1ccccc12		inactive: 12.2%
c1ccc(-c2ccncc2)cc1		inactive: 0.148%
Cc1ccc2c(c1)CC1(CN2C)C(=O)NC(=O)N(C(C)C)C1=O (centres undefined)		inactive: 2.8%
O=C(CCC(=O)c1cccs1)Nc1ccccc1F	inconclusive: 22.4 µM [falling, single point]	
COc1ccc(-c2csc(-n3ncc(C(=O)O)c3C(F)(F)F)n2)cc1	inconclusive: 12.6 µM [falling, partial curve]	
Fc1ccc(-c2cnc(-c3cccs3)o2)cc1		inconclusive: -1.59%
CCCCCCOc1ccc(CN2CCN(C)CC2)cc1		inconclusive: -14.4%
COC(=O)C1=C(c2ccc(OC)c(OC)c2)C[C@@H]2CC[C@H]1N2C(=O)NCCOc1ccccc1		inactive: 14.9%

For convenience, part of the list above.
Structure (SMILES)	Potency	activity change, negative = inhibition
O=C(/C=C/Nc1ccc(Br)cc1F)c1ccco1	inconclusive: 20 µM [falling, single point]	
CN1CCc2c(C#N)c(Cl)nc(Cl)c2C1		inconclusive: 9.57%
CC(=O)OC1=CC[C@H]2[C@@H]3CC[C@H]4C[C@H](OC(C)=O)[C@@H](OC(C)=O)C[C@]4(C)[C@H]3CC[C@]12C		inactive: -8.12%

Next entries.

Structure (SMILES)	Potency	activity change, negative = inhibition
Cc1nc2cc(-c3ccccc3)nn2c(C)c1CCC(=O)N1CCC2(CC1)OCCO2	inconclusive: 2.06 µM [falling, full curve]	
COC(=O)C1=C(c2ccc(F)cc2F)C[C@@H]2CC[C@H]1N2C(=O)NCc1ccco1		inactive: 0.406%
Cc1ccc(CC2C(=O)N(C)C(=O)N(C)C2=O)s1		inconclusive: -1.86%
CCOc1cc2c(cc1OCC)-n1cccc1C(c1ccc(F)cc1)NC2 (centres undefined)		inactive: -19.8%
O=C(Cc1ccc(Cl)cc1)Nc1ccccc1N1CCN(C(=O)c2ccccc2)CC1		inconclusive: -11.4%
Cc1cccn2c(=O)c3cc(C(=O)N4CCC5(CC4)OCCO5)n(C)c3nc12		inactive: -1.07%
CCCCCn1c(N)c(C(=O)NCCN2CCOCC2)c2nc3ccccc3nc21		inconclusive: -1.39%
O=C1CN=C(c2ccccc2)c2oc3ccc(Br)cc3c2N1		inconclusive: -0.29%
O=C1c2ccc3c4c(ccc(c24)C(=O)N1c1cccc(O)c1)C(=O)N(c1cccc(O)c1)C3=O		inconclusive: -5.05%
COC(=O)C1=C(c2ccc(OC(F)(F)F)cc2)C[C@@H]2CC[C@H]1N2C(=O)NCCOc1ccc(OC)cc1		inconclusive: -9.17%
COC(=O)C1=C(c2cccc(OCc3ccccc3)c2)C[C@@H]2CC[C@H]1N2C(=O)NCc1ccc(OC)c(OC)c1		inconclusive: -6.76%
CN(C)C(=O)Oc1cccc2c(OC(=O)N(C)C)cccc12	inconclusive: 0.58 µM [falling, full curve, poor fit]	
CCOP(=O)(OCC)C(NC(=O)c1cccc(C)c1)C(Cl)(Cl)Cl (centres undefined)	inconclusive: 39.8 µM [falling, partial curve, poor fit]	
CCOc1cccc(/C=N/NC(=O)c2ccc3c(c2)OCCO3)c1O	inconclusive: 11.2 µM [falling, partial curve]	
O=C(O)c1ccccc1-c1ccc(C=C2C(=O)N(c3ccccc3)C(=S)N(c3ccccc3)C2=O)o1		inconclusive: -24.4%
O=C(CN1CCCCC1)NCC(=O)Nc1ccc(Br)cc1C(=O)c1ccccc1		inactive: -1.86%
O=C(N/N=C/c1c(O)n(-c2ccccc2)c(=O)[nH]c1=O)c1ccncc1		inactive: 1.04%
Cc1cccc(-n2c(O)c(C=Nc3ccc(Br)cn3)c(=O)[nH]c2=O)c1		inconclusive: -3.63%
CCn1c(SCC(=O)Nc2nc(-c3ccccc3)cs2)nnc1-c1ccccc1O		inconclusive: -6.5%

— PubChem BioAssay AID493014 (National Center for Advancing Translational Sciences (NCATS), 2011)
